Reference: the supplement of paper PMC4604168 (melanoma cell lines)
This is one part of the list. Repeats are few or missing, and single values can be far off.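 Imaging used 1,536-well plates; nuclei positive for cleaved PARP by antibody were divided by total DNA-stained nuclei to yield the apoptosis fraction. Doses for screening kept most cells viable, and cell lines differ markedly in resting and induced cleaved-PARP levels.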

Columns and labels:
Experiment in all cases: cleaved PARP positive nuclei fraction relative to DMSO control; melanoma cells; higher = more apoptosis
Conditions in all cases: library dose: low library concentration; 72 h
[1] = system: MZ2-MEL
[2] = system: MeWo
[3] = system: RPMI7951
[4] = system: RVH-421
[5] = system: SkMel28
[6] = system: SkMel2
[7] = system: SkMel30
[8] = system: SkMel5
[9] = system: UACC257
[10] = system: UACC62

| SMILES | cleaved PARP positive nuclei fraction [1] | cleaved PARP positive nuclei fraction [2] | cleaved PARP positive nuclei fraction [3] | cleaved PARP positive nuclei fraction [4] | cleaved PARP positive nuclei fraction [5] | cleaved PARP positive nuclei fraction [6] | cleaved PARP positive nuclei fraction [7] | cleaved PARP positive nuclei fraction [8] | cleaved PARP positive nuclei fraction [9] | cleaved PARP positive nuclei fraction [10] |
| --- | --- | --- | --- | --- | --- | --- | --- | --- | --- | --- |
| Cn1sc(=O)n(Cc2ccccc2)c1=O + CC(C)CCN1c2nc(Nc3cc(F)c(O)c(F)c3)ncc2N(C)C(=O)C1C [BID1870] (first compound 0.4 µM, partner dose 0.2 µM) | 130% | 106% | 127% | 175% | 170% | 225% | 54.8% | 148% | 21.8% | 79.3% |
| Cn1sc(=O)n(Cc2ccccc2)c1=O + Oc1nc(-c2ccc(C(F)(F)F)cc2)nc2c1CSCC2 [XAV939] (first compound 0.4 µM, partner dose 2 µM) | 147% | 124% | 137% | 72.1% | 49.1% | 67.6% | 73.6% | 93.6% | 122% | 760% |
| Cn1cnc2c(F)c(Nc3ccc(Br)cc3Cl)c(C(=O)NOCCO)cc21 [selumetinib] + O=C(CCCCCCC(=O)Nc1ccccc1)NO [vorinostat] (first compound 0.015 µM, partner dose 0.08 µM) | 140% | 188% | 179% | 107% | 60% | 71.3% | 83.1% | 27.2% | 112% | 165% |
| CCCCCCCCc1ccc(CCC(N)(CO)CO)cc1 [fingolimod] + COc1cc2c(Oc3ccc4[nH]c(C)cc4c3F)ncnc2cc1OCCCN1CCCC1 [cediranib] (first compound 2 µM, partner dose 0.4 µM) | 41% | 63.5% | 92.3% | 37.8% | 61.9% | 98.2% | 145% | 99.1% | 74.7% | 151% |
| NC(=O)c1ccc(N(C(N)=O)c2c(F)cccc2F)nc1-c1ccc(F)cc1F + N#Cc1c(O)c2c(-c3ccc(-c4ccccc4O)cc3)csc2[nH]c1=O [A769662] (first compound 0.4 µM, partner dose 2 µM) | 28.5% | 50.1% | 88.4% | 120% | 56.7% | 126% | 108% | 65.9% | 23% | 90.7% |
| CCCCCCCCc1ccc(CCC(N)(CO)CO)cc1 [fingolimod] + CCN(CC)CCCCNc1ncc2cc(-c3cc(OC)cc(OC)c3)c(NC(=O)NC(C)(C)C)nc2n1 [PD173074] (first compound 2 µM, partner dose 0.1 µM) | 160% | 62.4% | 71.5% | 36.3% | 203% | 73.7% | 392% | 153% | 45% | 207% |
| Cn1sc(=O)n(Cc2ccccc2)c1=O + COc1ccc(COc2ccc(Cc3cnc(N)nc3N)cc2OC)cc1 [GW2580] (first compound 0.4 µM, partner dose 1 µM) | 67.9% | 130% | 38% | 57.9% | 172% | 64.4% | 37.1% | 81.4% | 89.4% | 99.6% |
| Cn1sc(=O)n(Cc2ccccc2)c1=O + Oc1cc(-c2nc(-c3ccccc3)[nH]c2-c2ccncc2)ccc1Cl [L779450] (first compound 0.4 µM, partner dose 0.2 µM) | 48.6% | 62.2% | 152% | 115% | 132% | 51.2% | 34.5% | 66.9% | 57.1% | 244% |
| COc1ccc(C2=N[C@@H](c3ccc(Cl)cc3)[C@@H](c3ccc(Cl)cc3)N2C(=O)N2CCNC(=O)C2)c(OC(C)C)c1 [Nutlin-3] + CN(NC(=O)CC(=O)NN(C)C(=S)c1ccccc1)C(=S)c1ccccc1 [STA4783] (first compound 0.1 µM, partner dose 0.006 µM) | 148% | 82% | 56.5% | 120% | 50.1% | 47.5% | 63.8% | 70.2% | 115% | 180% |
| CCCCCCCCc1ccc(CCC(N)(CO)CO)cc1 [fingolimod] + O=C(Nc1ccccc1)c1cc([N+](=O)[O-])ccc1Cl [GW9662] (first compound 2 µM, partner dose 2 µM) | 64.7% | 44.7% | 64.1% | 112% | 204% | 21.3% | 70.3% | 72.2% | 122% | 174% |
| CC(=O)O[C@@]12CO[C@@H]1C[C@H](O)[C@@]1(C)C(=O)[C@H](O)C3=C(C)[C@@H](OC(=O)[C@H](O)[C@@H](NC(=O)OC(C)(C)C)c4ccccc4)C[C@@](O)([C@@H](OC(=O)c4ccccc4)[C@H]21)C3(C)C [Docetaxel] + O=C(O)c1ccc(-c2c[nH]c3ncc(-c4ccccc4)cc23)cc1C1CCCC1 [GSK650394] (first compound 0.0001 µM, partner dose 0.16 µM) | 559% | 482% | 187% | 154% | 519% | 628% | 187% | 51.7% | 321% | 364% |
| C[C@@H](N)c1ccc(C(=O)Nc2ccnc3[nH]ccc23)cc1 + CN(C)S(=O)(=O)c1ccc2c(c1)/C(=C/c1cc3c([nH]1)CCCC3)C(=O)N2 [SU6656] (first compound 0.4 µM, partner dose 0.4 µM) | 187% | 259% | 147% | 139% | 127% | 71.2% | 89.3% | 156% | 54.1% | 131% |
| NC(=O)c1ccc(N(C(N)=O)c2c(F)cccc2F)nc1-c1ccc(F)cc1F + NC(=O)Nc1cc(-c2cccc(F)c2)sc1C(=O)N[C@H]1CCCNC1 [AZD7762] (first compound 0.4 µM, partner dose 0.02 µM) | 119% | 51.4% | 90.6% | 32% | 25.2% | 59.6% | 64.7% | 134% | 47% | 146% |
| Cn1cnc2c(F)c(Nc3ccc(Br)cc3Cl)c(C(=O)NOCCO)cc21 [selumetinib] + CN(C)S(=O)(=O)c1ccc2c(c1)/C(=C/c1cc3c([nH]1)CCCC3)C(=O)N2 [SU6656] (first compound 0.015 µM, partner dose 0.4 µM) | 353% | 37.9% | 63.4% | 94.4% | 107% | 67.8% | 92.6% | 73.2% | 17.2% | 288% |
| CC(=O)O[C@@]12CO[C@@H]1C[C@H](O)[C@@]1(C)C(=O)[C@H](O)C3=C(C)[C@@H](OC(=O)[C@H](O)[C@@H](NC(=O)OC(C)(C)C)c4ccccc4)C[C@@](O)([C@@H](OC(=O)c4ccccc4)[C@H]21)C3(C)C [Docetaxel] + O=C(Nc1ccccc1)c1cc([N+](=O)[O-])ccc1Cl [GW9662] (first compound 0.0001 µM, partner dose 2 µM) | 400% | 266% | 95.3% | 149% | 679% | 704% | 149% | 179% | 636% | 845% |
| CN(c1ncccc1CNc1nc(Nc2ccc3c(c2)CC(=O)N3)ncc1C(F)(F)F)S(C)(=O)=O + COC(=O)c1sccc1S(=O)(=O)Nc1ccc(Nc2ccccc2)cc1OC [GSK0660] (first compound 0.08 µM, partner dose 1 µM) | 367% | 176% | 124% | 92.9% | 168% | 186% | 183% | 304% | 160% | 314% |
| CC1(C)CCC(c2ccc(Cl)cc2)=C(CN2CCN(c3ccc(C(=O)NS(=O)(=O)c4ccc(N[C@H](CCN5CCOCC5)CSc5ccccc5)c(S(=O)(=O)C(F)(F)F)c4)cc3)CC2)C1 + COc1ccc(-c2ccc3c(N4CCOCC4)nc(N4C[C@@H](C)O[C@@H](C)C4)nc3n2)cc1CO [KU0063794] (first compound 0.4 µM, partner dose 0.02 µM) | 281% | 321% | 176% | 62.4% | 70.3% | 157% | 43.6% | 284% | 123% | 152% |
| C[C@@H](N)c1ccc(C(=O)Nc2ccnc3[nH]ccc23)cc1 + CCCCCCCCCCCC1=C(O)C(=O)C=C(O)C1=O [Embelin] (first compound 0.4 µM, partner dose 1.2 µM) | 186% | 114% | 161% | 176% | 137% | 137% | 145% | 107% | 56.7% | 175% |
| CC1(C)CCC(c2ccc(Cl)cc2)=C(CN2CCN(c3ccc(C(=O)NS(=O)(=O)c4ccc(N[C@H](CCN5CCOCC5)CSc5ccccc5)c(S(=O)(=O)C(F)(F)F)c4)cc3)CC2)C1 + COc1cc(Nc2ncc(F)c(Nc3ccc4c(n3)NC(=O)C(C)(C)O4)n2)cc(OC)c1OC [Tamatinib] (first compound 0.4 µM, partner dose 0.4 µM) | 263% | 256% | 179% | 311% | 78.4% | 96.5% | 216% | 354% | 500% | 413% |
| NC(=O)c1ccc(N(C(N)=O)c2c(F)cccc2F)nc1-c1ccc(F)cc1F + COc1cc(Nc2ncc(F)c(Nc3ccc4c(n3)NC(=O)C(C)(C)O4)n2)cc(OC)c1OC [Tamatinib] (first compound 0.4 µM, partner dose 0.4 µM) | 150% | 112% | 250% | 52.5% | 115% | 129% | 245% | 157% | 88.3% | 285% |
| CCCCCCCCc1ccc(CCC(N)(CO)CO)cc1 [fingolimod] + O=C(O)c1ccc(-c2c[nH]c3ncc(-c4ccccc4)cc23)cc1C1CCCC1 [GSK650394] (first compound 2 µM, partner dose 0.16 µM) | 146% | 32.2% | 179% | 56.1% | 59.9% | 69.1% | 66.4% | 78.7% | 80.2% | 94.2% |
| COc1ccc(C2=N[C@@H](c3ccc(Cl)cc3)[C@@H](c3ccc(Cl)cc3)N2C(=O)N2CCNC(=O)C2)c(OC(C)C)c1 [Nutlin-3] + CC(C)CCN1c2nc(Nc3cc(F)c(O)c(F)c3)ncc2N(C)C(=O)C1C [BID1870] (first compound 0.1 µM, partner dose 0.2 µM) | 56.9% | 63.1% | 32.9% | 91% | 85% | 65.5% | 120% | 69.6% | 37.8% | 196% |

Part of the list above in another layout:
SMILES	cleaved PARP positive nuclei fraction [1]	cleaved PARP positive nuclei fraction [2]	cleaved PARP positive nuclei fraction [3]	cleaved PARP positive nuclei fraction [4]	cleaved PARP positive nuclei fraction [5]	cleaved PARP positive nuclei fraction [6]	cleaved PARP positive nuclei fraction [7]	cleaved PARP positive nuclei fraction [8]	cleaved PARP positive nuclei fraction [9]	cleaved PARP positive nuclei fraction [10]
CN(c1ncccc1CNc1nc(Nc2ccc3c(c2)CC(=O)N3)ncc1C(F)(F)F)S(C)(=O)=O + COC(=O)c1sccc1S(=O)(=O)Nc1ccc(Nc2ccccc2)cc1OC [GSK0660] (first compound 0.08 µM, partner dose 1 µM)	367%	176%	124%	92.9%	168%	186%	183%	304%	160%	314%
CC1(C)CCC(c2ccc(Cl)cc2)=C(CN2CCN(c3ccc(C(=O)NS(=O)(=O)c4ccc(N[C@H](CCN5CCOCC5)CSc5ccccc5)c(S(=O)(=O)C(F)(F)F)c4)cc3)CC2)C1 + COc1ccc(-c2ccc3c(N4CCOCC4)nc(N4C[C@@H](C)O[C@@H](C)C4)nc3n2)cc1CO [KU0063794] (first compound 0.4 µM, partner dose 0.02 µM)	281%	321%	176%	62.4%	70.3%	157%	43.6%	284%	123%	152%
C[C@@H](N)c1ccc(C(=O)Nc2ccnc3[nH]ccc23)cc1 + CCCCCCCCCCCC1=C(O)C(=O)C=C(O)C1=O [Embelin] (first compound 0.4 µM, partner dose 1.2 µM)	186%	114%	161%	176%	137%	137%	145%	107%	56.7%	175%
CC1(C)CCC(c2ccc(Cl)cc2)=C(CN2CCN(c3ccc(C(=O)NS(=O)(=O)c4ccc(N[C@H](CCN5CCOCC5)CSc5ccccc5)c(S(=O)(=O)C(F)(F)F)c4)cc3)CC2)C1 + COc1cc(Nc2ncc(F)c(Nc3ccc4c(n3)NC(=O)C(C)(C)O4)n2)cc(OC)c1OC [Tamatinib] (first compound 0.4 µM, partner dose 0.4 µM)	263%	256%	179%	311%	78.4%	96.5%	216%	354%	500%	413%
NC(=O)c1ccc(N(C(N)=O)c2c(F)cccc2F)nc1-c1ccc(F)cc1F + COc1cc(Nc2ncc(F)c(Nc3ccc4c(n3)NC(=O)C(C)(C)O4)n2)cc(OC)c1OC [Tamatinib] (first compound 0.4 µM, partner dose 0.4 µM)	150%	112%	250%	52.5%	115%	129%	245%	157%	88.3%	285%
CCCCCCCCc1ccc(CCC(N)(CO)CO)cc1 [fingolimod] + O=C(O)c1ccc(-c2c[nH]c3ncc(-c4ccccc4)cc23)cc1C1CCCC1 [GSK650394] (first compound 2 µM, partner dose 0.16 µM)	146%	32.2%	179%	56.1%	59.9%	69.1%	66.4%	78.7%	80.2%	94.2%
